Source: US20240245800A1, “HIGHLY SPECIFIC RABBIT SINGLE -DOMAIN ANTIBODIES FOR DRUG DELIVERY IN IMMUNOTHERAPY APPLICATIONS” (TECHNOPHAGE, INVESTIGAÇÃO E DESENVOLVIMENTO EM …, priority 2021, published 2024)
At least one compound was matched to its structure with a doubt left.

Test system: LN229 cells
Assay: WST-1 cell viability assay on LN229 glioblastoma cells
Type: cell-based
Conditions: 24 h treatment

Cc1[nH]c2ccccc2c1CCNCc1ccc(/C=C/C(=O)NO)cc1 [PAN, panobinostat]
effect on the proliferation of LN229 cells: potent activity and dose-dependent inhibitory effect
